In assay [1] the target is PD-L1 4NQ of the GST pull-down (human) (UniProt Q9NZQ7). Nature of the assay: pull-down; in vitro GST pull-down; which partner carried GST is not told.
The target in assay [2] is PD-L1 4NQ (PD-L1-Flag N35Q/N192Q/N200Q/N219Q) (human) (UniProt Q9NZQ7). The assay is described as follows: proximity ligation; Duolink assay in cells.
Assay [3] has the same target. The assay is described as follows: co-IP; cells lysed in 50 mM Tris-HCl pH 8.0, 150 mM NaCl, 5 mM EDTA, 0.5% Nonidet P-40; cleared lysates immunoprecipitated with antibodies; which partner was precipitated is not told.

The chains behind the UniProt entries cited, without tags or fusion partners. Where a name states a change or a piece, a line headed by the entry shows the natural chain unless it says otherwise. A line that says so, or that is headed by a name, gives the form on record, which may keep a tag or linker.
PD-L1 4NQ (PD-L1-Flag N35Q/N192Q/N200Q/N219Q) (Q9NZQ7, form named): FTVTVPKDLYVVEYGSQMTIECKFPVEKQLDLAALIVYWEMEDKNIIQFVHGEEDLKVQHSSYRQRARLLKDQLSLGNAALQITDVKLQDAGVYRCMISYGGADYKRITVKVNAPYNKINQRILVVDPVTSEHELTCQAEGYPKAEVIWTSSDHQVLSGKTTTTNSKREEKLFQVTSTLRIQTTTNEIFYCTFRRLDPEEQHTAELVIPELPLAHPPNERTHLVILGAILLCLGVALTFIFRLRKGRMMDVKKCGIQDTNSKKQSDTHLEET
UniProt P49841: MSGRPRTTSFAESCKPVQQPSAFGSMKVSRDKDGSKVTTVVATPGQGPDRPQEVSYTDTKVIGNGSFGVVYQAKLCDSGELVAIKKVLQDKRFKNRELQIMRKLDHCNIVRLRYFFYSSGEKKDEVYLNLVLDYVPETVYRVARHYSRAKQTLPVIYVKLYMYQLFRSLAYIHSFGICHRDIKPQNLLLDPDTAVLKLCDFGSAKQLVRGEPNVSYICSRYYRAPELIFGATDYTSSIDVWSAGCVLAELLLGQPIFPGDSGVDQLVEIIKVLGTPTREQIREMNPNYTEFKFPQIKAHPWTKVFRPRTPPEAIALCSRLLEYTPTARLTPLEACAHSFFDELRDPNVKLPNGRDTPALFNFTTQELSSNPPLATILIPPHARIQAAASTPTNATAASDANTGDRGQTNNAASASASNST

These are yes or no findings as the source states them, for the method shown. Binding seen in cells or lysates may run through a third protein. Some results given as binding are weak or reduced against the parent protein; the word gives no strength.

Regarding “GSK3β of the GST pull-down (from UniProt P49841 1-420) (enzyme)”, the binding result in assay [1] is “binds”.

On to “Glycogen synthase kinase 3β (GSK3β), in cells (from UniProt P49841 1-420) (enzyme)”, for which the binding entry in assay [2] and in assay [3] was “binds” each time.
